Assay results reported in article PMC5161529.
Results are given in words; binding and its absence hold for the method and conditions named. Binding seen in cells or lysates may run through a third protein. For part of these data: A result given as binding can be weak or reduced; the word gives no strength.

Amino acid sequences for entries named in this document (tags omitted). A change or cut given only in a name is not applied to a line headed by its entry.
UniProt P25116: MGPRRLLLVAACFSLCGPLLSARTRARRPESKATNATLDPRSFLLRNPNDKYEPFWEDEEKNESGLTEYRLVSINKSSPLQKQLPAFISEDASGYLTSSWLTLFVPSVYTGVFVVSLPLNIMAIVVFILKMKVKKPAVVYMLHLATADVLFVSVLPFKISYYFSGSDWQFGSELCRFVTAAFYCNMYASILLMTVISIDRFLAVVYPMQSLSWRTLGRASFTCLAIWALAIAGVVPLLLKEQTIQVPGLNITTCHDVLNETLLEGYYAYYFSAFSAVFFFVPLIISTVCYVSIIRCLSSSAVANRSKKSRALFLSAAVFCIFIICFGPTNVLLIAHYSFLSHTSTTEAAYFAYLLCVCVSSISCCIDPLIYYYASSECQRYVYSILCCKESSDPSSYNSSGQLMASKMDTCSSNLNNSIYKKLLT
UniProt P30558: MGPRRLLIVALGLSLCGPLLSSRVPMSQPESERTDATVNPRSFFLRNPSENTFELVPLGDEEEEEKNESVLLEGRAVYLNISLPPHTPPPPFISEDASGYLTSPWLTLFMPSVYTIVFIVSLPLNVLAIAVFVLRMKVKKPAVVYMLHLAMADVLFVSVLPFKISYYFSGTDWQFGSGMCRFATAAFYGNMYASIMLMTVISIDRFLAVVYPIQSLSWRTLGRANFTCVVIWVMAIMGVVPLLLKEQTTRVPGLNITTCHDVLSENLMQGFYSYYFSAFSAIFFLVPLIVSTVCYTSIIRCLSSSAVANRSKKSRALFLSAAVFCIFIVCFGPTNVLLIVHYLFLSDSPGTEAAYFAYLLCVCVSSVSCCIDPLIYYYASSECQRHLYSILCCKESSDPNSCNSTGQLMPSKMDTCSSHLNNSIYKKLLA

Experiments:
[1] = molecular target: T1, TGFβRII (mouse (endogenous in J1 mESCs)) (UniProt Q62312); assay: co-IP; mESCs transduced with adenovirus encoding FLAG-PAR1, modified RIPA buffer; IP with rabbit anti-TGFβRII antibody; blots with mouse anti-FLAG, anti-TGFβRII, goat anti-TGFβRI
T1 sequence: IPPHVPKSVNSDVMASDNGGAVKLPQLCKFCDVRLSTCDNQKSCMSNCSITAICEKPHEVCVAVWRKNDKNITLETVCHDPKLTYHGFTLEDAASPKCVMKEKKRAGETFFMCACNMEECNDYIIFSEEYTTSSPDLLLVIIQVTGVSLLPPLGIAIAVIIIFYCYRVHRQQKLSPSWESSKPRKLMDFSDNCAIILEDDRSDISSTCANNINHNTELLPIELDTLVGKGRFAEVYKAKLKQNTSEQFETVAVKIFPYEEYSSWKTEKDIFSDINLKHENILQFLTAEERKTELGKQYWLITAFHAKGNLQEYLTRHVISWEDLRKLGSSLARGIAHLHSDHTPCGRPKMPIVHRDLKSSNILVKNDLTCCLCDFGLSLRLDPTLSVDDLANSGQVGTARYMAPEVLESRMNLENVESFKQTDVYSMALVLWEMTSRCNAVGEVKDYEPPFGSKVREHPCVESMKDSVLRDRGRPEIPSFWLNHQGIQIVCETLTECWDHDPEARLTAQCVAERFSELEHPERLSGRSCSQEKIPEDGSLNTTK

[2] = molecular target: T1, TGFβRII (mouse (endogenous in J1 mESCs)); assay: condition: only cells stimulated with PAR1-AP (15 μM); co-IP; as a1, mESCs stimulated with PAR1-AP (15 μM); IP with mouse anti-TGFβRII antibody; blot for PAR1
[3] = molecular target: T1, TGFβRII (mouse (endogenous in J1 mESCs)); assay: co-IP; endogenous proteins in lysates (modified RIPA buffer) of wild-type or Par1-/- mESCs, or mESCs given PBS, PAR1-AP or TGF-β1 (10 ng/mL); IP with mouse anti-TGFβRII antibody and protein A/G Sepharose; blots for PAR1, TGFβRI, TGFβRII

Substance | binding [1] | binding [2] | binding [3]
FLAG-tagged human PAR1 (adenovirus, in mESCs) (from UniProt P25116) (receptor) | binds | – | –
PAR1 (Protease Activated Receptor 1) (from UniProt P30558) | – | no binding | binds
